Measured values taken from paper PMC4997581.
No constants are given. Whether binding was seen depends on the method and setting. Binding seen in cells or lysates may run through a third protein.

Chains of the proteins cited; added tags and fusions are not shown.
UniProt P16788: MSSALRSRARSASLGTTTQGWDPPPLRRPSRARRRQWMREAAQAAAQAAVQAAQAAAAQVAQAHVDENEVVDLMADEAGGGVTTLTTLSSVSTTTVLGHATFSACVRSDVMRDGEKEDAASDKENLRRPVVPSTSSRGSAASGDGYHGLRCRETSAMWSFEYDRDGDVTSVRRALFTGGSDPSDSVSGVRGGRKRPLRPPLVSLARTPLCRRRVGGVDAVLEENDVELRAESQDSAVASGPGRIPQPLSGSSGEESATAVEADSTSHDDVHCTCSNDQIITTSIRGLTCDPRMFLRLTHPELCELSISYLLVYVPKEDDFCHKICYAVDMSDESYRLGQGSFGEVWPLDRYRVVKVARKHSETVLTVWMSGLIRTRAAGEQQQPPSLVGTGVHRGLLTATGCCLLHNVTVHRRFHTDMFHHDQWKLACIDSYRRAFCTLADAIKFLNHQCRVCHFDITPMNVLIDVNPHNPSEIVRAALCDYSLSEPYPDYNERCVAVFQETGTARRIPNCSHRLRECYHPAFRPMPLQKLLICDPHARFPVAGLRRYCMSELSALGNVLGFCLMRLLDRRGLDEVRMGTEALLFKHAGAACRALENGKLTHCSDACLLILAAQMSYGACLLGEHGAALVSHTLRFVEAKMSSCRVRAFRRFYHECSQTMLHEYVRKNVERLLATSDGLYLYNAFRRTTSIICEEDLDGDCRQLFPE
UniProt P14635: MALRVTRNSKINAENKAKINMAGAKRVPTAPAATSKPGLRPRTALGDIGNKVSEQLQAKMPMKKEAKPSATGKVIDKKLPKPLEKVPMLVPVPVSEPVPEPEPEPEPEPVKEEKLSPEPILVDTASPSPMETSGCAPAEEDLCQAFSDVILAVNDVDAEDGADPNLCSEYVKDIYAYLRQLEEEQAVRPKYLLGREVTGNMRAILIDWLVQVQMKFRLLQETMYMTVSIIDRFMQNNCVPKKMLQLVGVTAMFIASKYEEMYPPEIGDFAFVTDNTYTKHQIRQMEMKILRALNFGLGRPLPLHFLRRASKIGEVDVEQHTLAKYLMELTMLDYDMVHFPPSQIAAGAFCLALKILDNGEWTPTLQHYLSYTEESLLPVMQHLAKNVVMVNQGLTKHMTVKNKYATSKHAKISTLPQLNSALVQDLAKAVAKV

Target: HCMV protein kinase pUL97, Flag-tagged (pUL97-Flag) (human cytomegalovirus) (UniProt P16788)
Assay: co-IP

Substance: Cyclin B1 (from UniProt P14635 1-433)
- binding: no binding (condition: 500 mM NaCl in the IP buffer)
